# PubChem BioAssay AID1224830 | NIAID | 2016
# Aim: 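Genes whose knock-down alters the TNF-alpha reporter response to LPS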 (primary screen)
# Cells: human THP-1 monocytic leukaemia cells, TNF dual-luciferase reporter clone, PMA-differentiated to macrophage-like cells
# Reagents: siRNA pool against human genes, 50 nM
# Duration: LPS for 4 h, given about 3 days after siRNA transfection
# Treatment: bacterial LPS (TLR4 ligand), 10 ng/ml
# Measured: 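TNF firefly reporter luminescence divided by renilla, normalised to the plate median, then turned into a robust z-score for each replicate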
# Reading the numbers: TNF reporter robust z-score: higher = stronger TNF reporter response to LPS
# Hit rule: 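a well is active when its z-score exceeds 2.8 or falls below -1.5; control wells carry no call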
# The whole screen tested about 18,000 reagents; shown is a part drawn at random. Over the whole deposit, about 2,900 (16%) are marked active. 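Calls are made per well; low scores hint the gene aids the LPS response, high scores that it dampens it.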 Reagents against one gene are numbered here. Repeated entries: four replicate wells of each siRNA pool.
gene,pool no.,TNF reporter robust z-score,Call
OVCH2 (ovochymase 2),1,-0.05,inactive
OVCH2 (ovochymase 2),1,2.07,inactive
OVCH2 (ovochymase 2),1,-0.99,inactive
CLSTN2 (calsyntenin 2),1,0.16,inactive
CLSTN2 (calsyntenin 2),1,-0.1,inactive
CLSTN2 (calsyntenin 2),1,-1.06,inactive
CLSTN2 (calsyntenin 2),1,-0.05,inactive
FAM234A (family with sequence similarity 234 member A),1,0.32,inactive
FAM234A (family with sequence similarity 234 member A),1,0.53,inactive
FAM234A (family with sequence similarity 234 member A),1,0.19,inactive
FAM234A (family with sequence similarity 234 member A),1,-0.33,inactive
GPR61 (G protein-coupled receptor 61),1,-0.36,inactive
GPR61 (G protein-coupled receptor 61),1,1.91,inactive
GPR61 (G protein-coupled receptor 61),1,-0.21,inactive
GPR61 (G protein-coupled receptor 61),1,0.33,inactive
SMARCA5 (SNF2 related chromatin remodeling ATPase 5),1,0.3,inactive
SMARCA5 (SNF2 related chromatin remodeling ATPase 5),1,0.93,inactive
SMARCA5 (SNF2 related chromatin remodeling ATPase 5),1,0.48,inactive
SMARCA5 (SNF2 related chromatin remodeling ATPase 5),1,0.43,inactive
MICAL2,1,-0.39,inactive
MICAL2,1,0.57,inactive
MICAL2,1,0.86,inactive
MICAL2,1,-0.56,inactive
MICAL2,2,-0.33,inactive
MICAL2,2,2.65,inactive
MICAL2,2,2.7,inactive
MICAL2,2,2.43,inactive
FAM194C (family with sequence similarity 194 member C),1,1.51,inactive
FAM194C (family with sequence similarity 194 member C),1,2.45,inactive
FAM194C (family with sequence similarity 194 member C),1,0.75,inactive
FAM194C (family with sequence similarity 194 member C),1,0.49,inactive
OR51B5 (olfactory receptor family 51 subfamily B member 5),1,0.32,inactive
OR51B5 (olfactory receptor family 51 subfamily B member 5),1,-1.07,inactive
OR51B5 (olfactory receptor family 51 subfamily B member 5),1,-0.63,inactive
OR51B5 (olfactory receptor family 51 subfamily B member 5),1,-1.04,inactive
BICDL1 (BICD family like cargo adaptor 1),1,-0.21,inactive
BICDL1 (BICD family like cargo adaptor 1),1,-0.1,inactive
BICDL1 (BICD family like cargo adaptor 1),1,0.86,inactive
BICDL1 (BICD family like cargo adaptor 1),1,-0.63,inactive
CASQ1 (calsequestrin 1),1,-0.98,inactive
CASQ1 (calsequestrin 1),1,-0.77,inactive
CASQ1 (calsequestrin 1),1,-1.76,active
CASQ1 (calsequestrin 1),1,-0.57,inactive
MAP2K7 (mitogen-activated protein kinase kinase 7),1,0.31,inactive
MAP2K7 (mitogen-activated protein kinase kinase 7),1,1.33,inactive
MAP2K7 (mitogen-activated protein kinase kinase 7),1,1.03,inactive
MAP2K7 (mitogen-activated protein kinase kinase 7),1,-0.11,inactive
GNB1L (G protein subunit beta 1 like),1,-0.66,inactive
GNB1L (G protein subunit beta 1 like),1,0.18,inactive
GNB1L (G protein subunit beta 1 like),1,-0.58,inactive
GNB1L (G protein subunit beta 1 like),1,0.54,inactive
CPLANE2 (ciliogenesis and planar polarity effector complex subunit 2),1,-0.4,inactive
CPLANE2 (ciliogenesis and planar polarity effector complex subunit 2),1,0.55,inactive
CPLANE2 (ciliogenesis and planar polarity effector complex subunit 2),1,1,inactive
CPLANE2 (ciliogenesis and planar polarity effector complex subunit 2),1,1.05,inactive
SPATA46 (spermatogenesis associated 46),1,0.54,inactive
SPATA46 (spermatogenesis associated 46),1,0.11,inactive
SPATA46 (spermatogenesis associated 46),1,-0.01,inactive
SPATA46 (spermatogenesis associated 46),1,-0.04,inactive

Continued.
gene,pool no.,TNF reporter robust z-score,Call
GOLM1 (golgi membrane protein 1),1,0.47,inactive
GOLM1 (golgi membrane protein 1),1,-0.29,inactive
GOLM1 (golgi membrane protein 1),1,0.3,inactive
GOLM1 (golgi membrane protein 1),1,0.92,inactive
MAG (myelin associated glycoprotein),1,1.62,inactive
MAG (myelin associated glycoprotein),1,0.25,inactive
MAG (myelin associated glycoprotein),1,0.65,inactive
MAG (myelin associated glycoprotein),1,1.07,inactive
RMND5B (required for meiotic nuclear division 5 homolog B),1,0.38,inactive
RMND5B (required for meiotic nuclear division 5 homolog B),1,-0.59,inactive
RMND5B (required for meiotic nuclear division 5 homolog B),1,-0.55,inactive
RMND5B (required for meiotic nuclear division 5 homolog B),1,-0.46,inactive
DENND10 (DENN domain containing 10),1,0.57,inactive
DENND10 (DENN domain containing 10),1,1.29,inactive
DENND10 (DENN domain containing 10),1,1.26,inactive
DENND10 (DENN domain containing 10),1,2.02,inactive
SH3BGR (SH3 domain binding glutamate rich protein),1,-0.97,inactive
SH3BGR (SH3 domain binding glutamate rich protein),1,-1.19,inactive
SH3BGR (SH3 domain binding glutamate rich protein),1,-0.06,inactive
NFAT5 (nuclear factor of activated T cells 5),1,-0.92,inactive
NFAT5 (nuclear factor of activated T cells 5),1,0.77,inactive
NFAT5 (nuclear factor of activated T cells 5),1,-0.09,inactive
NFAT5 (nuclear factor of activated T cells 5),1,0.39,inactive
MAPK12 (mitogen-activated protein kinase 12),1,-0.34,inactive
MAPK12 (mitogen-activated protein kinase 12),1,0.61,inactive
MAPK12 (mitogen-activated protein kinase 12),1,-0.41,inactive
MAPK12 (mitogen-activated protein kinase 12),1,-0.58,inactive
NWD1 (NACHT and WD repeat domain containing 1),1,-0.52,inactive
NWD1 (NACHT and WD repeat domain containing 1),1,-0.17,inactive
NWD1 (NACHT and WD repeat domain containing 1),1,-1.68,active
NWD1 (NACHT and WD repeat domain containing 1),1,-1.24,inactive
KRT6C (keratin 6C),1,0.62,inactive
KRT6C (keratin 6C),1,0.4,inactive
KRT6C (keratin 6C),1,0.39,inactive
KRT6C (keratin 6C),1,0.77,inactive
PRKCI (protein kinase C iota),1,1.15,inactive
PRKCI (protein kinase C iota),1,0.39,inactive
PRKCI (protein kinase C iota),1,0.27,inactive
PRKCI (protein kinase C iota),1,-0.68,inactive
OR6B2 (olfactory receptor family 6 subfamily B member 2),1,,inactive
OR6B2 (olfactory receptor family 6 subfamily B member 2),1,-0.65,inactive
OR6B2 (olfactory receptor family 6 subfamily B member 2),1,-1.12,inactive
OR6B2 (olfactory receptor family 6 subfamily B member 2),1,-1.26,inactive
GFOD1 (Gfo/Idh/MocA-like oxidoreductase domain containing 1),1,-0.58,inactive
GFOD1 (Gfo/Idh/MocA-like oxidoreductase domain containing 1),1,-0.43,inactive
GFOD1 (Gfo/Idh/MocA-like oxidoreductase domain containing 1),1,-0.65,inactive
GFOD1 (Gfo/Idh/MocA-like oxidoreductase domain containing 1),1,-0.7,inactive
GFOD1 (Gfo/Idh/MocA-like oxidoreductase domain containing 1),2,-0.49,inactive
GFOD1 (Gfo/Idh/MocA-like oxidoreductase domain containing 1),2,-0.28,inactive
GFOD1 (Gfo/Idh/MocA-like oxidoreductase domain containing 1),2,-0.46,inactive
GFOD1 (Gfo/Idh/MocA-like oxidoreductase domain containing 1),2,-0.22,inactive
